From patent US20110160399A1 (NIHON UNIVERSITY, priority 2008, published 2011)

Assay: general procedure: Fmoc solid-phase peptide synthesis; β-CLEAR resin; HCTU
Settings: for conjugation yield: conjugation step

| Substance | step yield (late stage modification step) [%] | conjugation yield [%] |
| --- | --- | --- |
| 4-(8-(benzyloxyamino)-8-oxooctanamido)phenylamido-ββPyPyImγImImPyβDp | 56 | – |
| 4-(8-methoxy-8-oxooctanamido)benzoyl-(PEG) ββImPyPyβImPyγImPyβImIm PyβDp | – | 12 |
| 4-(8-methoxy-8-oxooctanamido)benzoyl-H2NββPyPyβPyPyPyγImImImβPyImβDp | – | 33 |
| 4-(8-methoxy-8-oxooctanamido)benzoyl-ββImPyPyγImImPyβDp | – | 19 |
| 4-(8-methoxy-8-oxooctanamido)benzoyl-ββImPyPyβImPyγImPyβImIm PyβDp | – | 38 |
